Measured values published in patent US20070014736A1, “Methods of delivering corticotroph-derived glycoprotein hormone” (priority 2005, published 2007).
No constants are given. Whether binding was seen depends on the method and setting. Some results given as binding are weak or reduced against the parent protein; the word gives no strength.

Sequences of proteins named here, by UniProt entry; tags and fusion partners are left off. A change or cut given only in a name is not applied to a line headed by its entry. Residues count along the entry.
UniProt P16473, residues 21-764: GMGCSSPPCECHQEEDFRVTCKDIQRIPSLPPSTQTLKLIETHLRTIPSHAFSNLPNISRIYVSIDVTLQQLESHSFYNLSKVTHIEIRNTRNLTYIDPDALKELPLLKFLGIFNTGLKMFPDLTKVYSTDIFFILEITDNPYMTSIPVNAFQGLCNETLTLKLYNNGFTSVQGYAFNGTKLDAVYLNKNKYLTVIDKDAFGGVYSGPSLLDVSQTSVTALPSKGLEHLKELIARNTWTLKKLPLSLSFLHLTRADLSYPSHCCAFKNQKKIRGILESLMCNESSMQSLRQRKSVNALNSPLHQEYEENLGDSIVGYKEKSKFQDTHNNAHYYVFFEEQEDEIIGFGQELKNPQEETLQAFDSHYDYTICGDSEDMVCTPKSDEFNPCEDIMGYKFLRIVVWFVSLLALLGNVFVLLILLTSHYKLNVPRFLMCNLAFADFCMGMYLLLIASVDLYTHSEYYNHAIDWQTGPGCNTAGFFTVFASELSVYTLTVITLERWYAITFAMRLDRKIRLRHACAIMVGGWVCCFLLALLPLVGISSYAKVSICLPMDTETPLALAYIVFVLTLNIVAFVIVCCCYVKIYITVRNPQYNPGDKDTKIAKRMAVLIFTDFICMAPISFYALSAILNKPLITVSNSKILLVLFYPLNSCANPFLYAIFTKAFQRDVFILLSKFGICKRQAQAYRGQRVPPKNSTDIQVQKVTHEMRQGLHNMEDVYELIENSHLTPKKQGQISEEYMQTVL
UniProt Q96T91: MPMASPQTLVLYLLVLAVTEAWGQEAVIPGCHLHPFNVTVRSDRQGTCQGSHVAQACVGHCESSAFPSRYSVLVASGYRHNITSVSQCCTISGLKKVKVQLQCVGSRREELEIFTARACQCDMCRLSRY

What was measured:
[1] = molecular target: thyroid-stimulating hormone receptor (TSHR) expressed on BHK cells (BHK-TSHR cells) (UniProt P16473); test: summary of the radioligand binding and competition on BHK-TSHR cells
[2] = molecular target: thyroid-stimulating hormone receptor (TSHR) expressed on BHK cells (BHK-TSHR cells) (UniProt P16473); test: radioligand binding to BHK-TSHR cell monolayers, 4 C
[3] = molecular target: human thyroid-stimulating hormone receptor (human TSHR), on cells (human) (UniProt P16473); test: flow cytometry, CGH-biotin 10 ug/ml + streptavidin-PE on human PBMC subsets; receptor taken as TSH-R by the example's heading

Measured: binding

recombinant human Corticotroph-derived Glycoprotein Hormone (rhCGH), heterodimer of GPHA2 and GPHB5 (from UniProt Q96T91 24-129; Q86YW7 25-130) (ligand)
binds: all assays above
